According to the supplement of paper PMC12282887:
These are raw signals, not scaled to a control.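 The top concentration was set near the MIC for antimicrobials, at 500 µM for most other compounds, and up to 1 mM for known inducer-like compounds. Deletion strains started from a tenfold smaller inoculum, and wells growing below 10% of the overall median were treated as non-growing.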

Test system: Escherichia coli BW25113
Assay: growth (OD600 area under curve, 8 h) (OD600 x h); higher = more growth
Experimental: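 E. coli BW25113 reporter strains (wild type, ΔmarA, ΔsoxS, Δrob, each carrying one of 8 lux reporter plasmids) were grown in 40 µl LB in 384-well plates at 37°C, 800 rpm, with each compound at 4 two-fold concentrations, in biological duplicates. Growth is the baseline-corrected OD600 area under the curve over 8 h (0-8 h WT, 1-9 h deletion strains).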

C/C(=C\C(=O)OCCCCCCCCC(=O)O)C[C@@H]1OC[C@H](C[C@@H]2O[C@H]2[C@@H](C)[C@H](C)O)[C@@H](O)[C@H]1O [Pseudomonic acid]
growth
Conditions | reporter plasmid: EVC | reporter plasmid: acrABp | reporter plasmid: marRABp | reporter plasmid: micFp | reporter plasmid: ompFp | reporter plasmid: robp | reporter plasmid: soxSp | reporter plasmid: tolCp
0.25 µg/ml, genetic background: wild type | 2.96 | 3.27 | 3.19 | 3.24 | 3.01 | 3.13 | 3.26 | 3.19
0.25 µg/ml, genetic background: ΔmarA | 3.14 | 4.32 | 3.78 | 3.47 | 3.48 | 3.92 | 2.97 | 2.98
0.25 µg/ml, genetic background: Δrob | 3.32 | 2.968 | 3.37 | 3.06 | 2.49 | 2.84 | 2.93 | 3.19
0.25 µg/ml, genetic background: ΔsoxS | 3.26 | 3.33 | 3.1 | 3.06 | 2.92 | 3.19 | 3.25 | 3.23
0.5 µg/ml, genetic background: wild type | 3.18 | 3.42 | 3.27 | 3.32 | 2.96 | 3.21 | 3.35 | 3.41
0.5 µg/ml, genetic background: ΔmarA | 3.07 | 4.11 | 3.421 | 3.57 | 3.35 | 3.64 | 3.15 | 3.03
0.5 µg/ml, genetic background: Δrob | 3.23 | 2.94 | 3.3 | 3.39 | 2.44 | 2.82 | 3.24 | 3.3827
0.5 µg/ml, genetic background: ΔsoxS | 3.63 | 3.54 | 3.18 | 3.3 | 3.21 | 3.16 | 3.4 | 3.657
1 µg/ml, genetic background: wild type | 3.25 | 3.54 | 3.47 | 3.32 | 3.25 | 3.4028 | 3.33 | 3.337
1 µg/ml, genetic background: ΔmarA | 3.19 | 4.19 | 3.73 | 3.5 | 3.44 | 3.98 | 3.04 | 3.03
1 µg/ml, genetic background: Δrob | 3.28 | 3.36 | 3.54 | 3.31 | 2.89 | 2.92 | 3.2 | 3.39
1 µg/ml, genetic background: ΔsoxS | 3.5 | 3.52 | 3.5 | 3.18 | 3.4 | 3.42 | 3.26 | 3.53
2 µg/ml, genetic background: wild type | 3.11 | 2.898 | 2.99 | 2.852 | 2.39 | 2.6322 | 3.15 | 3.07
2 µg/ml, genetic background: ΔmarA | 2.71 | 3.16 | 2.8 | 3.21 | 2.88 | 3.09 | 2.76 | 2.65
2 µg/ml, genetic background: Δrob | 3.09 | 2.16 | 2.94 | 2.91 | 2.02 | 2.16 | 2.98 | 2.96
2 µg/ml, genetic background: ΔsoxS | 3.33 | 2.93 | 2.57 | 2.92 | 2.43 | 2.54 | 3.096 | 3.32
